Assay results published in the supplement of paper PMC6411743.
± gives the standard deviation of the averaged measurements. This is a selection; strong and weak results do not stand in their true shares. Small differences around the control level are noise.

Amino acid sequences for entries named in this document (tags omitted). A change or cut given only in a name is not applied to a line headed by its entry.
UniProt P49755: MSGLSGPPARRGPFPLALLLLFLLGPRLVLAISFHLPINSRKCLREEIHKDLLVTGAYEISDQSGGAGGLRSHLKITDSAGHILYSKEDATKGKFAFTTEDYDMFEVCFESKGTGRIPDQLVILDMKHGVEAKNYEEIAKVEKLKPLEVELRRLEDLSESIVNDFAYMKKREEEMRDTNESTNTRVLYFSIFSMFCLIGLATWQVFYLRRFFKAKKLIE
UniProt P37268: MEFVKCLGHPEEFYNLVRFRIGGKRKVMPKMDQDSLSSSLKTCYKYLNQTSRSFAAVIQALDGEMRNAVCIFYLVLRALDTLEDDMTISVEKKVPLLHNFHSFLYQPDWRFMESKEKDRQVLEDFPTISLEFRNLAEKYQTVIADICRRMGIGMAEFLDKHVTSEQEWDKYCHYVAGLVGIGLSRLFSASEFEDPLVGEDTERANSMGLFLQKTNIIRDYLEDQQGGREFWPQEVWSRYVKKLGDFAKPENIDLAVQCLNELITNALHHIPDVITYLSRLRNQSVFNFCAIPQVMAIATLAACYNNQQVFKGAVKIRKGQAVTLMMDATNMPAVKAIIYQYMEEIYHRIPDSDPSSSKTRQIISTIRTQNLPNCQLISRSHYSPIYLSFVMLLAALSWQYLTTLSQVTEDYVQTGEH
UniProt P38606, whole entry: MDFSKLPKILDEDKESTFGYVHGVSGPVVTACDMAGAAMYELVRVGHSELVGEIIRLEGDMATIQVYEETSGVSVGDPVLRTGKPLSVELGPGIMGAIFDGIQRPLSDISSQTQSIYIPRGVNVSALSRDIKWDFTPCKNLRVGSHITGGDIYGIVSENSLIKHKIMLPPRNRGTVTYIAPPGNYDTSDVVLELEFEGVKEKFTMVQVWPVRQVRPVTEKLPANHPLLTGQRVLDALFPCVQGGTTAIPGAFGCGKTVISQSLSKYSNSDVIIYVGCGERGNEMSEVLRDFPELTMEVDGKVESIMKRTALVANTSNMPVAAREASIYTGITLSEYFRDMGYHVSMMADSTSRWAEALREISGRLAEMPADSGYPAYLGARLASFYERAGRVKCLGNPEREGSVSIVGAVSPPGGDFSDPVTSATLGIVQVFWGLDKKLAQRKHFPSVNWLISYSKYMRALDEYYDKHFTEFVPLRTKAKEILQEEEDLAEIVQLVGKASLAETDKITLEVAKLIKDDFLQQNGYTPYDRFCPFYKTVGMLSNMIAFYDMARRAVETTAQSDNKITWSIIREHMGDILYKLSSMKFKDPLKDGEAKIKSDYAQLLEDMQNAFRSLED
UniProt P36915, whole entry: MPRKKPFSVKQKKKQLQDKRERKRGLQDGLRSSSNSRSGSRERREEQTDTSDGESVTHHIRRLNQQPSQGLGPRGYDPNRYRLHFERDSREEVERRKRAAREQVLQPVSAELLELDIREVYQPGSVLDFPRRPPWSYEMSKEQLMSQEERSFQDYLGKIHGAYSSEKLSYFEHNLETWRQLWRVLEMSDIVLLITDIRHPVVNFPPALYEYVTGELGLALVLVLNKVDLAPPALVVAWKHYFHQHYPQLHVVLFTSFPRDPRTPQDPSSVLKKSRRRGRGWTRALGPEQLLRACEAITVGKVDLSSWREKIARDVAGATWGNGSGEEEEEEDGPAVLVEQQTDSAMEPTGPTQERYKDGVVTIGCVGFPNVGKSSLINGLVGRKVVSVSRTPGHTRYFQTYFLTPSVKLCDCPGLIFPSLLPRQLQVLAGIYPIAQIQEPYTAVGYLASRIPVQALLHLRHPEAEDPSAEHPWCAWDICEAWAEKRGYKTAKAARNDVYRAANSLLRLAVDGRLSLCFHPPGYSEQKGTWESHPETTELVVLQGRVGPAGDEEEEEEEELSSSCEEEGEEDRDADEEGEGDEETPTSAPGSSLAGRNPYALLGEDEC
UniProt P49754: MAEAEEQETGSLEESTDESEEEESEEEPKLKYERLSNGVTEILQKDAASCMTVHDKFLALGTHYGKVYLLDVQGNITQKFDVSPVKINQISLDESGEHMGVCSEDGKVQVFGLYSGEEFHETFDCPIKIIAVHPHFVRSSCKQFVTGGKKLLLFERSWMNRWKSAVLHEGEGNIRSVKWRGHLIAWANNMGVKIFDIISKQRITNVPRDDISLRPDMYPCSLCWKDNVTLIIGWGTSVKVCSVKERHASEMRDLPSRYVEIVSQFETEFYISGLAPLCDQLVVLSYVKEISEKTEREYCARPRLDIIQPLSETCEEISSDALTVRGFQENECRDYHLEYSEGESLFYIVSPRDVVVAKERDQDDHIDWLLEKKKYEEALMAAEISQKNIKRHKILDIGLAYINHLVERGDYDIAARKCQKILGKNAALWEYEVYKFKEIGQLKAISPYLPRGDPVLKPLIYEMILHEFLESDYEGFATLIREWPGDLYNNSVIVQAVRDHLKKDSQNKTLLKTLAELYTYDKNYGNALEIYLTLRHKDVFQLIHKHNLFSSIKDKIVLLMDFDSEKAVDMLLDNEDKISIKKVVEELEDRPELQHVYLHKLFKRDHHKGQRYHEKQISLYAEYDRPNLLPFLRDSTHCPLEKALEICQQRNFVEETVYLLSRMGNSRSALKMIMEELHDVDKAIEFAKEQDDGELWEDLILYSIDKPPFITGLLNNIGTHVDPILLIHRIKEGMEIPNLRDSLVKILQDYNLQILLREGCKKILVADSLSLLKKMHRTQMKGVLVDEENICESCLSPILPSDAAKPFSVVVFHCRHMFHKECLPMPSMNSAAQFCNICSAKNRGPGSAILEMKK
UniProt P42166: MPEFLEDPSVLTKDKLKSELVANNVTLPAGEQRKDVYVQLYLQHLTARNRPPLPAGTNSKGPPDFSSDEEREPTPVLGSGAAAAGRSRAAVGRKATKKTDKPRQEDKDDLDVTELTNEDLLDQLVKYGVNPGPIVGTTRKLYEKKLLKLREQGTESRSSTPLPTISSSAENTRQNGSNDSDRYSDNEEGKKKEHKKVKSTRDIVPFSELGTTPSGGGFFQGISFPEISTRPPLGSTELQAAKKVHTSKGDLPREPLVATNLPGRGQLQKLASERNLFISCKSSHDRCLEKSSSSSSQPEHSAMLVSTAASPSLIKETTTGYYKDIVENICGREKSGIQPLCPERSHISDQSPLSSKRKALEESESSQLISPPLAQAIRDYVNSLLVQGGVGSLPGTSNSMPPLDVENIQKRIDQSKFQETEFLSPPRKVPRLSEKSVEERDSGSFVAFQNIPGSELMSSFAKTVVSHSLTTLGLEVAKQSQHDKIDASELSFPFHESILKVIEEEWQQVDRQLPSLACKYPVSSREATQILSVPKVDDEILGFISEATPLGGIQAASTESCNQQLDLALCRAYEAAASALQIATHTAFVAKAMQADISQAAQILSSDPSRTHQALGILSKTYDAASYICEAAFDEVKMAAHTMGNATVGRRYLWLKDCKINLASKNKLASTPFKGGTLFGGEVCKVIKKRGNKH
UniProt P40337, whole entry, looked up: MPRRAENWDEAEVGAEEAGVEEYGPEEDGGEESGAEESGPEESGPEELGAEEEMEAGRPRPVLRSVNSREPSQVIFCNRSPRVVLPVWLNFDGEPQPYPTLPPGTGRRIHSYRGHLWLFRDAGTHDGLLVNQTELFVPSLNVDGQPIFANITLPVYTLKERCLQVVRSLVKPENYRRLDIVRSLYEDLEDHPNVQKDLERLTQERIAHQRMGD
UniProt P40763, whole entry: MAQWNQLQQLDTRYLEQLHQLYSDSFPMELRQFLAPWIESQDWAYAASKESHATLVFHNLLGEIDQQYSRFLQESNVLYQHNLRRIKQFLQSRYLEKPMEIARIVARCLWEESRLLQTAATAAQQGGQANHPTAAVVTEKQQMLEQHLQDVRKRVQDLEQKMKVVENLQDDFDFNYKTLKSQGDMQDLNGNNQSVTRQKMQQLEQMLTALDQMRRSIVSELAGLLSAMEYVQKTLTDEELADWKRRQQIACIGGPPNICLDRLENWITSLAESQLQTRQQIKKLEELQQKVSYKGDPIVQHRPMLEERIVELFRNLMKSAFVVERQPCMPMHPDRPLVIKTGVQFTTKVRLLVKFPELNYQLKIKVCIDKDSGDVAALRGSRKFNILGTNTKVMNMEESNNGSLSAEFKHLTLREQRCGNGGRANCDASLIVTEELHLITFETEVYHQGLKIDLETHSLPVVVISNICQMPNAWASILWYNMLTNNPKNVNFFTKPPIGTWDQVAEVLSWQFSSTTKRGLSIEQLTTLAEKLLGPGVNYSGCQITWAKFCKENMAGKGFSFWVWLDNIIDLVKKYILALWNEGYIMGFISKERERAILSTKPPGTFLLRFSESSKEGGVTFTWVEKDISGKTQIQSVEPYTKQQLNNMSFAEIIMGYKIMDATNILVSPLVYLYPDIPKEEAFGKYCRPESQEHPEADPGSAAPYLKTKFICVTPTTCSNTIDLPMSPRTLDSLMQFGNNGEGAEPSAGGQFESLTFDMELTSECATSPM
UniProt P45973, whole entry: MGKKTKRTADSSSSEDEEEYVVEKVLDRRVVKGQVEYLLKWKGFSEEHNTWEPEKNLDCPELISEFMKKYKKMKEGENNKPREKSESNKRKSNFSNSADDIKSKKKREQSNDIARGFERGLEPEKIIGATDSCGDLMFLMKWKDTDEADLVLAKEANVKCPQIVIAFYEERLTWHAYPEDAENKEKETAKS
UniProt P48553, whole entry: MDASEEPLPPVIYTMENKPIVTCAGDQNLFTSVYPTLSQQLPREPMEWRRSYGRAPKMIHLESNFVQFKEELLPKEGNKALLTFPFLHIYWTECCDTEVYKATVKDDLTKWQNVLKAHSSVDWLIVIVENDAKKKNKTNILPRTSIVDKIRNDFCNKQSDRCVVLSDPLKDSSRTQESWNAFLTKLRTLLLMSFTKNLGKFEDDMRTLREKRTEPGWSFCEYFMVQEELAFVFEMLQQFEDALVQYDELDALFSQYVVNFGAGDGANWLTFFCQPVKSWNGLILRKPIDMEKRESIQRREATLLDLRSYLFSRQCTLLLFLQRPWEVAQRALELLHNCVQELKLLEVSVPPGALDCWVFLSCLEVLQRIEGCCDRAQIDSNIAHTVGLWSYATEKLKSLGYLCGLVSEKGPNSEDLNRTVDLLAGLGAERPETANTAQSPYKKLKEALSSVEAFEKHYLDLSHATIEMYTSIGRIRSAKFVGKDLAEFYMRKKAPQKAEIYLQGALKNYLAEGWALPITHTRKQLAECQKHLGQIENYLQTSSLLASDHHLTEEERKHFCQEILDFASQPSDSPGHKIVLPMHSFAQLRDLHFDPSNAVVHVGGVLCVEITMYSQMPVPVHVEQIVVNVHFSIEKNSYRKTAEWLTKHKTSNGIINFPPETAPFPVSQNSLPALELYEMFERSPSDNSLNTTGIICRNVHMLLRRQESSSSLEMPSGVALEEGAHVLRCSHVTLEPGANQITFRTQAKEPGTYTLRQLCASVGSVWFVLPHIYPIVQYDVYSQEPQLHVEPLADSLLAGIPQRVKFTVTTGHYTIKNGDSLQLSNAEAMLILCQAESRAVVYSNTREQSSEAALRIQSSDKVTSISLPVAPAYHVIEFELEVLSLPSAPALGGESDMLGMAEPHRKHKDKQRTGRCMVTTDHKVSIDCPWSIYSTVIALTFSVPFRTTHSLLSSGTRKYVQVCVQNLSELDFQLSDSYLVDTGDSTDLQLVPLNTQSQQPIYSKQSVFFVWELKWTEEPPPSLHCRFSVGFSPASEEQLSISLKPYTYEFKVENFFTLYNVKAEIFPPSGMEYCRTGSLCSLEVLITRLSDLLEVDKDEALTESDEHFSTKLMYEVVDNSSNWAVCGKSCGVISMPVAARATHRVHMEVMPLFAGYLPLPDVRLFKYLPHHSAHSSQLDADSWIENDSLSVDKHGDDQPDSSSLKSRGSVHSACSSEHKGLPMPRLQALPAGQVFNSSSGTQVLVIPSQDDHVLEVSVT
UniProt P42224: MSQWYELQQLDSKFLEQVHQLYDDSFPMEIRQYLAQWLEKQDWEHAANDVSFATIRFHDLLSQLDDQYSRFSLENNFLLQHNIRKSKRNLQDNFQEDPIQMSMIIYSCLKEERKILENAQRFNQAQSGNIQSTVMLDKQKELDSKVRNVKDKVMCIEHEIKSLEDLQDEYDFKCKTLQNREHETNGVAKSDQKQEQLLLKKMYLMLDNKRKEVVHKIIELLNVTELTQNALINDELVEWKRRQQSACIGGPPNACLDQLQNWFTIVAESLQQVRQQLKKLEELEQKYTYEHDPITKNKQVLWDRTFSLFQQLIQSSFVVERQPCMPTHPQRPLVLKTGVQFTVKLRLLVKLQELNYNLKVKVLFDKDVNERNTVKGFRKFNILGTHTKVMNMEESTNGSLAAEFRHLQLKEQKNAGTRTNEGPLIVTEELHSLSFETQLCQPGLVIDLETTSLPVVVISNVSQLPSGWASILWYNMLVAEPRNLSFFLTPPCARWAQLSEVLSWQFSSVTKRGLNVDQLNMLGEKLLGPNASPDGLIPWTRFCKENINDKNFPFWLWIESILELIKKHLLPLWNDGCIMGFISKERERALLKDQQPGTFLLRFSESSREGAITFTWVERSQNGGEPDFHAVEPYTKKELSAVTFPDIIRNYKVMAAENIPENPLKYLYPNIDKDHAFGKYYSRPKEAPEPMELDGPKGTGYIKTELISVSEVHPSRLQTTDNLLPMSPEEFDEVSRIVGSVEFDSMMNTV

Compound: Nc1ncnc2c1ncn2[C@@H]1O[C@H](COP(=O)(O)OP(=O)(O)OP(=O)(O)O)[C@@H](O)[C@H]1O [adenosine triphosphate]
Assay: NP40-soluble protein abundance relative to vehicle (solubility fold change) (ratio); higher = more soluble protein in presence of ATP
Details: concentration: 0.1mM
Outline: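 Eight concentrations, 0.1 to 10 mM, were tested on Jurkat crude lysate for 10 min at room temperature and then 3 min at 37 °C, in three independent experiments. The lysate was solubilised with 0.8% NP40 and benzonase, ultracentrifuged, and the supernatant TMT-labelled for LC-MS/MS. Each value is the fold change against the detergent-processed vehicle in its own replicate, from vsn-normalised intensities.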

Target	NP40-soluble protein abundance
TMED10 (UniProt P49755)	1.08 ± 0.11
POLD2 (UniProt P49005)	1.05 ± 0.021
UniProt P36873 and related entries	1.04 ± 0.08
COIL (UniProt P38432)	1.05 ± 0.16
TXLNA (UniProt P40222)	0.986 ± 0.028
RPL3 (UniProt P39023)	0.979 ± 0.041
RPL21 (UniProt P46778)	0.919 ± 0.13
UniProt P40855 and related entries	0.891 ± 0.15
PGM1 (UniProt P36871)	1.02 ± 0.087
MAGEA9 (UniProt P43362)	1.04 ± 0.098
FDFT1 (UniProt P37268)	1.03 ± 0.061
UniProt P49589 and related entries	1.04 ± 0.044
CRKL (UniProt P46109)	1.03 ± 0.025
UniProt P46020-2	1.05 ± 0.033
NEK4 (UniProt P51957)	1.02 ± 0.12
ATP6V1A (UniProt P38606)	1.03 ± 0.028
GNL1 (UniProt P36915)	1.07 ± 0.028
UniProt P49754 and related entries	1.05 ± 0.14
EIF2B2 (UniProt P49770)	1 ± 0.043

Target	NP40-soluble protein abundance
UniProt P49641 and related entries	1.02 ± 0.065
P42166 and related entries (UniProt H0YJH7+P42167+P42166)	1.01 ± 0.031
CASP3 (UniProt P42574)	1.04 ± 0.11
RANGAP1 (UniProt P46060)	0.961 ± 0.027
UniProt P40337-2|P40337-3	0.844 ± 0.12
UniProt P40763 and related entries	1.03 ± 0.04
TAGLN2 (UniProt P37802)	0.826 ± 0.051
UniProt P40925 and related entries	1 ± 0.084
UniProt P43250-2	1.12 ± 0.045
UniProt P46783 and related entries	0.971 ± 0.11
PSMC4 (UniProt P43686)	1.005 ± 0.0092
CBX5 (UniProt P45973)	1.01 ± 0.026
UniProt P41227	0.996 ± 0.036
TRAPPC10 (UniProt P48553)	1.09 ± 0.064
DUSP3 (UniProt P51452)	0.971 ± 0.055
UniProt P42224 and related entries	1.04 ± 0.069
KNTC1 (UniProt P50748)	1.07 ± 0.069
GCLC (UniProt P48506)	1.06 ± 0.067

Same assay, conditions: concentration: 0.5mM

Target	NP40-soluble protein abundance
TMED10 (UniProt P49755)	1.08 ± 0.12
POLD2 (UniProt P49005)	1.04 ± 0.059
UniProt P36873 and related entries	0.998 ± 0.046
COIL (UniProt P38432)	1.06 ± 0.12
TXLNA (UniProt P40222)	0.992 ± 0.076
RPL3 (UniProt P39023)	0.995 ± 0.085
RPL21 (UniProt P46778)	0.943 ± 0.1
UniProt P40855 and related entries	0.855 ± 0.14
PGM1 (UniProt P36871)	1.03 ± 0.05
MAGEA9 (UniProt P43362)	1.08 ± 0.077
FDFT1 (UniProt P37268)	1.01 ± 0.051
UniProt P49589 and related entries	1.03 ± 0.052
CRKL (UniProt P46109)	1.01 ± 0.018
UniProt P46020-2	1.05 ± 0.069
NEK4 (UniProt P51957)	1.09 ± 0.1
ATP6V1A (UniProt P38606)	1.02 ± 0.02
GNL1 (UniProt P36915)	1.04 ± 0.041
UniProt P49754 and related entries	0.985 ± 0.089
EIF2B2 (UniProt P49770)	0.9607 ± 0.0019

Target	NP40-soluble protein abundance
UniProt P49641 and related entries	1.06 ± 0.084
P42166 and related entries (UniProt H0YJH7+P42167+P42166)	1.08 ± 0.038
CASP3 (UniProt P42574)	1.03 ± 0.061
RANGAP1 (UniProt P46060)	0.963 ± 0.029
UniProt P40337-2|P40337-3	0.854 ± 0.19
UniProt P40763 and related entries	1.06 ± 0.051
TAGLN2 (UniProt P37802)	0.845 ± 0.083
UniProt P40925 and related entries	1.03 ± 0.061
UniProt P43250-2	1.17 ± 0.031
UniProt P46783 and related entries	0.924 ± 0.099
PSMC4 (UniProt P43686)	0.978 ± 0.024
CBX5 (UniProt P45973)	1.088 ± 0.01
UniProt P41227	0.979 ± 0.062
TRAPPC10 (UniProt P48553)	0.969 ± 0.031
DUSP3 (UniProt P51452)	0.941 ± 0.079
UniProt P42224 and related entries	1.04 ± 0.054
KNTC1 (UniProt P50748)	1.02 ± 0.045
GCLC (UniProt P48506)	1.04 ± 0.087
